Experimental data: PubChem BioAssay AID588590 (National Center for Advancing Translational Sciences (NCATS), 2011)
Out of some 390,000 compounds screened, about 4,000 (1%) were called active. The shares of active, inactive and inconclusive entries below differ from those in the screen. Calls follow the shape of the dose curve; as a rule, active = well fitted inhibition curve with a large enough effect; inconclusive = small, poorly fitted or top-dose-only effect, or another doubt; inactive = no such curve, though single readings can be large or run the other way. Potencies of inconclusive entries are doubtful fits and often do not repeat.

Amino acid sequences for entries named in this document (tags omitted). A change or cut given only in a name is not applied to a line headed by its entry.
UniProt Q9UNA4: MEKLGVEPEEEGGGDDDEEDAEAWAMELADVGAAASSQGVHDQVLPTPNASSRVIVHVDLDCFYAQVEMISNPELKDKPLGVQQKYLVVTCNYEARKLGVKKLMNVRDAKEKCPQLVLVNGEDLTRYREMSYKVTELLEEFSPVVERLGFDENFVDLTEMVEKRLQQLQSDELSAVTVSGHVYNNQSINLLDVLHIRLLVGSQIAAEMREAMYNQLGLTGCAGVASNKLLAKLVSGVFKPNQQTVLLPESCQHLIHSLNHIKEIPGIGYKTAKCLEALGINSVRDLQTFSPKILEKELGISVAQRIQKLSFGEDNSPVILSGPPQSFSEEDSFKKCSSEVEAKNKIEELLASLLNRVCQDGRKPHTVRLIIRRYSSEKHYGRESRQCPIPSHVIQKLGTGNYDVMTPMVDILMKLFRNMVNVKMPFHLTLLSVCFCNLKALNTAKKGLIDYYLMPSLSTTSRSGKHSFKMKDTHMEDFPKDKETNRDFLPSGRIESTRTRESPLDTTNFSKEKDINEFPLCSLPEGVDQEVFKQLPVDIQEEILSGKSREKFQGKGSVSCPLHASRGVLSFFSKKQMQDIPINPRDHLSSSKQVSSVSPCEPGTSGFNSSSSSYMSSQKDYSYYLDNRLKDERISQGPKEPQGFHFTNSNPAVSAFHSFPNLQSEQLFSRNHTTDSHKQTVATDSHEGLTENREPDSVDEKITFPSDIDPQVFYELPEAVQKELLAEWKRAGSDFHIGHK

Biological target: DNA polymerase iota (Homo sapiens) (UniProt Q9UNA4)
Test: qHTS for Inhibitors of Polymerase Iota
Conditions: Pol iota fluorescent replication assay, 10 min; series mostly up to 115 µM
Method in brief: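 Pol iota at 10 nM preincubated 15 min with compounds at room temperature; reaction started with fluorescent substrate, 50 nM final. Fluorescence read kinetically at 0 and 10 min; buffer-only wells as negative control.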
Potency is read from the fitted curve at half-maximal effect.

Potency, inactive:
COc1cc(NC(=O)C2CCN(S(=O)(=O)c3ccc4c(c3)oc(=O)n4C)CC2)cc(OC)c1
COc1ccccc1NC(=O)c1csc(-n2nc(C)cc2C(F)(F)F)n1
CC(C)c1cnc2c(c1SCc1cccc(F)c1)c(=O)n(C)c(=O)n2C
COc1cccc(/C=C(\C#N)c2nc3ccc(C)cc3[nH]2)c1OCC(=O)O
N#CN=c1snc(-c2ccccc2)n1-c1ccc(Br)cc1
Cc1nc2nc(NC(=O)C(C)(C)C)[nH]n2c(=O)c1Cc1ccccc1
O=C(NCC(c1cccs1)S(=O)(=O)c1cccs1)c1ccc(Cl)cc1 (stereo not given)
O=[N+]([O-])c1cccc(NC(=S)Nc2nc(-c3ccccc3Cl)cs2)c1
O=C(COC(=O)c1ccc(S(=O)(=O)N2CCOCC2)cc1)Nc1ccccc1OC(F)F
CC[C@]12C(=O)N(C)C[C@H]([C@@H]3C(=O)N(C)C(=O)[C@@H]31)N2C(=O)c1ccc(C(F)(F)F)cc1
CC1CCc2c(sc3ncnc(SCC(=O)Nc4ccc(C(=O)O)cc4)c23)C1 (stereo not given)
Cc1nc2sc3c(O)cc(=O)[nH]c3c2c(C)c1C

Taken from the results shown for reference:
Potency, inactive:
COc1ccccc1NC(=O)c1csc(-n2nc(C)cc2C(F)(F)F)n1
CC(C)c1cnc2c(c1SCc1cccc(F)c1)c(=O)n(C)c(=O)n2C
COc1cccc(/C=C(\C#N)c2nc3ccc(C)cc3[nH]2)c1OCC(=O)O
N#CN=c1snc(-c2ccccc2)n1-c1ccc(Br)cc1
Cc1nc2nc(NC(=O)C(C)(C)C)[nH]n2c(=O)c1Cc1ccccc1
O=C(NCC(c1cccs1)S(=O)(=O)c1cccs1)c1ccc(Cl)cc1 (stereo not given)

Quoted at random: 2 compounds from above.
Potency, inactive:
O=C(COC(=O)c1ccc(S(=O)(=O)N2CCOCC2)cc1)Nc1ccccc1OC(F)F
CC1CCc2c(sc3ncnc(SCC(=O)Nc4ccc(C(=O)O)cc4)c23)C1 (stereo not given)

Following part.

Potency, active:
CCOC(=O)c1c(-c2ccco2)csc1NC(=O)COC(=O)c1cnc(C)cn1 39.8 µM

Potency, inconclusive:
Cc1ccc(C)c(CN2C(=O)C(C)Oc3ccc(C)cc32)c1 (stereo not given) 89.1 µM [inhibitor, partial curve, poor fit]
S=c1[nH]nc(-c2cc(-c3ccco3)[nH]n2)n1-c1cccc2ccccc12 20 µM [inhibitor, partial curve, poor fit]
CC1=C(C(=O)OCc2ccc([N+](=O)[O-])cc2)N2C(=O)C(NC(=O)Cc3ccccc3)C2SC1 (stereo not given) 50.1 µM [inhibitor, partial curve, poor fit]
CC(C)N1CCC(N2CCN(C3CCCCCC3)CC2CCO)CC1 (stereo not given) 70.8 µM [inhibitor, partial curve, poor fit]
CCOC(=O)c1sc(=S)n(C)c1NC(=O)c1cccc(Br)c1 7.08 µM [inhibitor, partial curve, poor fit]
CC(C)CN(CC(C)C)c1nnc(NC(=O)Cn2c(=O)oc3ccccc32)s1 3.98 µM [inhibitor, partial curve, poor fit]
CCOc1ccc(CN2C(=O)c3ccccc3Sc3ccc(C(=O)NC)cc32)cc1 100 µM [inhibitor, single point]
CN(C)c1ccc(C=c2c3ccccc3n3c2cc(-c2ccccc2)[n+]3C)cc1 17.8 µM [inhibitor, full curve]
CCOC(=O)C1=C(COC(=O)c2ccccc2[N+](=O)[O-])NC(=O)NC1C (stereo not given) 89.1 µM [inhibitor, single point]
O=C(O)CSc1nnc(-c2ccc(S(=O)(=O)N3CCCC3)cc2)n1Cc1ccco1 89.1 µM [inhibitor, partial curve, poor fit]
COc1ccc2cc(OCC(=O)NNC(=O)Nc3ccc(F)cc3)ccc2c1 100 µM [inhibitor, single point]
O=c1[nH]c(=O)n([C@H]2C[C@H](O)[C@@H](CO)O2)cc1C(F)(F)F 79.4 µM [inhibitor, partial curve]
O=c1cc(C=NNc2ccc([N+](=O)[O-])cc2)[nH]c(=O)[nH]1 89.1 µM [inhibitor, single point]
CNC(=O)NC(=O)COC(=O)c1ccc(-n2c(C)ccc2C)cc1 112 µM [inhibitor, partial curve, poor fit]
Cc1cccc(-c2nc3nc(C)cc(NCc4ccccc4Cl)n3n2)c1 39.8 µM [inhibitor, partial curve, poor fit]
CCOC(=O)[C@@H]1[C@H]2COc3cc(OC)ccc3[C@@H]2N2C(=O)N(c3ccc(C)cc3)C(=O)[C@@]12C 12.6 µM [inhibitor, partial curve, poor fit]
Cc1ccc(-n2c(SCC(=O)NCc3ccccc3)nc3n[nH]c(C)c3c2=N)cc1Cl 100 µM [inhibitor, single point]
O=C(NC(=S)Nc1cc(Cl)ccc1N1CCOCC1)c1ccc(-c2cccc(Cl)c2)o1 89.1 µM [inhibitor, partial curve, poor fit]
CC(C)(C)OC(=O)N1CCC(c2cc(=O)n3[nH]cc(C(=O)Nc4ccc(F)c(Cl)c4)c3n2)CC1 31.6 µM [inhibitor, single point]
Cc1ccc(/C=C/C(=O)Nc2ccc(S(N)(=O)=O)cc2)o1 10 µM [inhibitor, partial curve, poor fit]
O=C(O)c1nccnc1C(=O)Nc1ccc(Cl)cc1Cl 0.708 µM [inhibitor, full curve, poor fit]
COC(=O)c1ccc(=O)c2nc3/c(=C/O)c(O)cc(=O)c3[nH]c12 2.82 µM [inhibitor, full curve, poor fit]
CC(=O)OCC1(O)CC23CCC4c5ccoc5CCC4(C)C2CCC1C3 (stereo not given) 17.8 µM [inhibitor, partial curve, poor fit]
CSCCC1NC(=O)N(CC(=O)Nc2ccc(Cl)c(S(=O)(=O)N3CCOCC3)c2)C1=O (stereo not given) 79.4 µM [inhibitor, partial curve]
O=C1NC(=O)/C(=C/c2ccc(-c3cccc([N+](=O)[O-])c3)o2)S1 39.8 µM [inhibitor, single point]
CN(C)C(CNC(=O)c1cc(-c2ccco2)nc2ccccc12)c1ccccc1 (stereo not given) 3.16 µM [inhibitor, full curve, poor fit]
Cc1ccccc1NC(=S)Nc1cccc2cnccc12 14.1 µM [inhibitor, partial curve]
